Experiment [1] deals with PA4991 from Pseudomonas aeruginosa (Pseudomonas aeruginosa PAO1) (UniProt Q9HUH4). Put plainly: crystal structure; X-ray, 2.4 A, space group P21, one monomer in the asymmetric unit; crystal packing analysed with PISA; both purified.
Experiment [2] shares this target. The experiment can be described thus: SEC; analytical size-exclusion chromatography, Superdex 200 10/300, 25 mM Tris-HCl pH 8.0, 150 mM NaCl; calibrated with protein standards; both purified.

These are yes or no findings as the source states them, for the method shown.

B1: PA4991 from Pseudomonas aeruginosa (enzyme, UniProt Q9HUH4 1-391)
chain: MPQALSTDILIVGGGIAGLWLNARLRRAGYATVLVESASLGGGQSVKSQGIIHGGAKYALHGALTGASEAIADMPRRWRACLGSDGELDLRGVRLLSEAHYLWSPGGLAGSLTSFFASKAVRSRVEQAKGEDLPPALRDKGFKGKAYRLTEIVFDVPDLIRRLAELAGDSLLAGERIEPLREGRELAGLCVDGREIRAQRVVLSAGAGNEALLRELGLEQPAMQRRPLHMVMVKAATLKPLYAHCLGAGPKPRITVTTHPTRDGQSVWYLGGDIAETDGVARDEAAQIAEARRELAKLLPWIDLGQAQWATLRVDRAEPAQSNLLRPDNAFLAEQGRLLVGWPTKLALAPDFADRVCARLEEDGIRPSEHAALPQLPRPPLAEPAWEVAFA
With B1, the binding entry in experiment [1] and in experiment [2] was “no binding” each time.

For the origin of these results see PMC4741190, “Crystal structure of the flavoenzyme PA4991 from Pseudomonas aeruginosa” (Acta Crystallographica. Section F, Structural Biology …, 2016).
